From publication PMC5177663 (Frontiers in Pharmacology, 2016)

Tested on: middle-aged mice
Assay: contextual serial discrimination (CSD) task, contextual memory
Type: in vivo, C57/Bl6 mice
Details: for effect on total number of head-dips, test phase: Experiment 1, middle-aged mice, 9 days oral, all levels pooled of the other drug; for total number of head-dips, test phase: Experiment 2, middle-aged mice, mean ± SEM
Excerpt: The memory task and apparatus has been fully described previously ([Chauveau et al., 2009]). The contextual serial discrimination (CSD) task is based on two successive discriminations in a four-hole board which can be retrieved with the help of specific temporal and contextual cues associated with each of them.
The acquisition phase took place in room A where animals learned two consecutive spatial discriminations (D1 and D2; Figure 1A) which differed by the color and texture of the floor and were separated by a 2-min delay interval. For both D1 and D2, 10 20-mg food pellets were available during the 6-min exploration sessions; for D2 specifically, the baited hole was consistently located in the opposite symmetrical hole. Environmental cues made of colored paper sheets were positioned at 1.00 m above the board. At the end of the acquisition phase, mice returned in the animal’s room for 24 h. Animals retained for the test phase in the present study for both Experiments 1 and 2 have eaten at least 7–8 pellets/10 during both acquisitions.
Mice were replaced on the D1 floor in the board without any pellet in the apparatus and were allowed to freely explore for 6 min during which the number of head-dips in each hole was counted. This allowed measures of the % of “correct responses” (head-dips into the hole previously baited on the same floor-context), the % of “interference responses” (head-dips into the hole previously baited at D2, on the other floor-context) (Figure 1B) and of the “strength” of “contextual memory” score (SCM) (% correct responses - % interference responses). Thus, since correct responses are based on the use of the internal context (color of the floor) and interferent responses are based on the use of spatial allocentric cues previously associated with the other floor, thus the trend of SCM score toward a positive difference represents the gain of internal contextual memory, at the expense of allocentric spatial one.
The two last administrations were delivered 1 h before the acquisition and test phases.
Independent groups of mice (N = 10 per group) were used. An additional group composed by young vehicle mice (4–5 months young-vehicles, N = 10) was added for determination of the aging effect on both memory and phosphorylated CREB immunoreactivities, as compared to middle-aged Vehicles. For the immunohistochemical study, animals submitted to D1 memory testing were compared to “naïve” mice isolated in the colony room (with N = 5 per group; Naïve condition) and that underwent the food deprivation procedure and drug treatments as behaving animals (Test condition).

SMILES	effect on total number of head-dips, test phase	total number of head-dips, test phase (S 38093 0.1 mg/kg alone)	total number of head-dips, test phase (S 38093 0.3 mg/kg alone)	total number of head-dips, test phase (Donepezil 0.3 mg/kg alone)
NC(=O)c1ccc(OCCCN2CC3CCCC3C2)cc1 (centres unmarked) [S 38093]	no significant effect	37.4 ± 6.15	44.90 ± 6.56	
COc1cc2c(cc1OC)C(=O)C(CC1CCN(Cc3ccccc3)CC1)C2 (centres unmarked) [Donepezil, reference compound]	no significant effect			23.90 ± 4.06
